This passage reports binding results from paper PMC7468131.

Chains of the proteins cited; added tags and fusions are not shown. Residues count along the entry.
UniProt Q13586, residues 23-685: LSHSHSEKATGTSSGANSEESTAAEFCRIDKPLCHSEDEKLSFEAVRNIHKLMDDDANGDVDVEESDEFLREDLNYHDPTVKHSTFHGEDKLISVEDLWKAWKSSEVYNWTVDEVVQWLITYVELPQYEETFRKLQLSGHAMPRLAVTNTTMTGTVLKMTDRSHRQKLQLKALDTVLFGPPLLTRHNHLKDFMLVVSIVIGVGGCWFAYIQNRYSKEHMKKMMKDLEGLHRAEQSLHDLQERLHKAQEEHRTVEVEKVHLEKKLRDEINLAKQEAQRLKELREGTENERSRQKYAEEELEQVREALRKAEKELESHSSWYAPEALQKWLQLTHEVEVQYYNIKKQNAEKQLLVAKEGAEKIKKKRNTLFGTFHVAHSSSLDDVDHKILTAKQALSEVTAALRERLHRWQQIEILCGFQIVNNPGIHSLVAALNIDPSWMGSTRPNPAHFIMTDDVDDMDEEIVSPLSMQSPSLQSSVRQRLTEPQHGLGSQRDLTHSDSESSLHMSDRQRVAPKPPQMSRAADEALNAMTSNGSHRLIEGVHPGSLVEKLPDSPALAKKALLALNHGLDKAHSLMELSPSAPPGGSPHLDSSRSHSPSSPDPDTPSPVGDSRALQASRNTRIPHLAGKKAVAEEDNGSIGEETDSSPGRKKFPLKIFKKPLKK
UniProt Q9P246, residues 15-746: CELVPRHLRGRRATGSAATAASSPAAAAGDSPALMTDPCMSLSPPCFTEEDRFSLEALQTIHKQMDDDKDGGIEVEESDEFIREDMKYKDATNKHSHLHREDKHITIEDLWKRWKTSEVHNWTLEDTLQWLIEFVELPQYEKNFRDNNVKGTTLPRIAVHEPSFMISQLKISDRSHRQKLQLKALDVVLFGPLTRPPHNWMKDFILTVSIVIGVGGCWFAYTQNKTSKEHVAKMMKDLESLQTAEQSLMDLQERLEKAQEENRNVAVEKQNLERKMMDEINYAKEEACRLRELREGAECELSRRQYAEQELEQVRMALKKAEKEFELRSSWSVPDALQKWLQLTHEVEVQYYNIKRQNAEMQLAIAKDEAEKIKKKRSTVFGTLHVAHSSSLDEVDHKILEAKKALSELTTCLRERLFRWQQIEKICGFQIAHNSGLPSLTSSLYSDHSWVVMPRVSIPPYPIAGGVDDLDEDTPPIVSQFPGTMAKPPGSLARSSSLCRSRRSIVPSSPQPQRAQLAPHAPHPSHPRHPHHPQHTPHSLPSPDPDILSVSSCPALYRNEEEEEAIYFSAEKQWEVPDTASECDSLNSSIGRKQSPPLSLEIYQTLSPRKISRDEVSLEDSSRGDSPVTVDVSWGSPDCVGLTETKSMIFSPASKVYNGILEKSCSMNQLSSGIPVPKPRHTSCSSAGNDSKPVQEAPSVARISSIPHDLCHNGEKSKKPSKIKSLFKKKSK

These are yes or no findings as the source states them, for the method shown. Binding seen in cells or lysates may run through a third protein. These calls come from enrichment with a bait or labelling near it, and not all partners need be listed.

The assay has as its target FLAG-tagged STIM1 (stromal interaction molecule 1), stably expressed in HeLa cells (UniProt Q13586). Put plainly: affinity purification with mass spectrometry; HeLa cells stably expressing low levels of FLAG-tagged STIM1; crosslinking, glycerol gradient fractionation, anti-FLAG resin, elution with FLAG peptide, SDS-PAGE bands analysed by nLC-MS/MS.

For “STIM2, endogenous in HeLa cells (from UniProt Q9P246 15-746)”, the binding result is reported as “binds”.
